The other results are listed elsewhere or left out.
Compound: Cc1cc(ccc1-c1ccccc1)C(=O)N1CCCN(CC1)C(=O)CCl [compound 10]
Assay: probe-labelled cysteine peptide fold change vs DMSO (competition) (log2 fold change); higher = less target engagement (more negative = stronger competition)
Conditions: THP-1, incubation time: 4 h
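Further: competitive profiling in live THP-1 cells: cysteine peptides tagged with an iodoacetamide desthiobiotin (IA-DTB) probe, intensity after compound treatment relative to DMSO-treated cells.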

Sequences of proteins named here, by UniProt entry; tags and fusion partners are left off. A change or cut given only in a name is not applied to a line headed by its entry.
UniProt P52701: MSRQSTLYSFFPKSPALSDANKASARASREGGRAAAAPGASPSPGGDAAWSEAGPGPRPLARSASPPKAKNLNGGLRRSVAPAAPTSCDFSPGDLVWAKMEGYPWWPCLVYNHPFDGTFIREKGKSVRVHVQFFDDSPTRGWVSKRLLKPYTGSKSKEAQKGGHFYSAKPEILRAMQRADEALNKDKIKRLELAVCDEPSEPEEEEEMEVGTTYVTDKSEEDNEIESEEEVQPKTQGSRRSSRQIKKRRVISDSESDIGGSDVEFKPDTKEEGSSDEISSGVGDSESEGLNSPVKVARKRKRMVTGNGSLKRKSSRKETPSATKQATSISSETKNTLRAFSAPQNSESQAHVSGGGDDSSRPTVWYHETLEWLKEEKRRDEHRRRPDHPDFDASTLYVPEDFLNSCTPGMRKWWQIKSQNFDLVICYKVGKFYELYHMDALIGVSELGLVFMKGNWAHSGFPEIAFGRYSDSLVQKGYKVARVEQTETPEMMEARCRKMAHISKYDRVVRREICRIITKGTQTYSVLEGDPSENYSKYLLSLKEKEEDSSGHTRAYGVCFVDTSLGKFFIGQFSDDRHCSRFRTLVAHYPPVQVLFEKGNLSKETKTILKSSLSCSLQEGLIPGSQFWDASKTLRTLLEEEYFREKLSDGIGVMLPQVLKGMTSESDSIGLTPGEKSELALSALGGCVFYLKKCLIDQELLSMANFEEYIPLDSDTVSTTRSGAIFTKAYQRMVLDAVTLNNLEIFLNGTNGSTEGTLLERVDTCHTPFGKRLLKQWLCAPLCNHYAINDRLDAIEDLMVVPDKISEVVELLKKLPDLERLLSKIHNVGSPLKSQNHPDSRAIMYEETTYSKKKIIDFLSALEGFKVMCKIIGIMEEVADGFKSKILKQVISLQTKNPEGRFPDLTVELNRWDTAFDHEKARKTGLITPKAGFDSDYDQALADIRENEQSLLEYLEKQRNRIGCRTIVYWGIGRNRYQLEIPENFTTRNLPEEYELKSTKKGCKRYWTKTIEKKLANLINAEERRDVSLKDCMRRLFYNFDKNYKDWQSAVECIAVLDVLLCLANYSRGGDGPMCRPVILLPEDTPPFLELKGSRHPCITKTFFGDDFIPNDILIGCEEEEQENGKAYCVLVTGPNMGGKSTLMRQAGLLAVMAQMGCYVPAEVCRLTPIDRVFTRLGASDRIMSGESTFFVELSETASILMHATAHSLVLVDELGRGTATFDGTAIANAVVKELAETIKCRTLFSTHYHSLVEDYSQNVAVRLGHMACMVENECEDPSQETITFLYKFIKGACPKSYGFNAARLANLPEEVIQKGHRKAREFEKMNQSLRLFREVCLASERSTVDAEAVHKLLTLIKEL
UniProt P58546, whole entry, looked up: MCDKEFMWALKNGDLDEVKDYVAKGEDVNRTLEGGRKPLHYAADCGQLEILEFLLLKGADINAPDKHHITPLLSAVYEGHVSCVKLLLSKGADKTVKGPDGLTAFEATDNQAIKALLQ
UniProt O75592: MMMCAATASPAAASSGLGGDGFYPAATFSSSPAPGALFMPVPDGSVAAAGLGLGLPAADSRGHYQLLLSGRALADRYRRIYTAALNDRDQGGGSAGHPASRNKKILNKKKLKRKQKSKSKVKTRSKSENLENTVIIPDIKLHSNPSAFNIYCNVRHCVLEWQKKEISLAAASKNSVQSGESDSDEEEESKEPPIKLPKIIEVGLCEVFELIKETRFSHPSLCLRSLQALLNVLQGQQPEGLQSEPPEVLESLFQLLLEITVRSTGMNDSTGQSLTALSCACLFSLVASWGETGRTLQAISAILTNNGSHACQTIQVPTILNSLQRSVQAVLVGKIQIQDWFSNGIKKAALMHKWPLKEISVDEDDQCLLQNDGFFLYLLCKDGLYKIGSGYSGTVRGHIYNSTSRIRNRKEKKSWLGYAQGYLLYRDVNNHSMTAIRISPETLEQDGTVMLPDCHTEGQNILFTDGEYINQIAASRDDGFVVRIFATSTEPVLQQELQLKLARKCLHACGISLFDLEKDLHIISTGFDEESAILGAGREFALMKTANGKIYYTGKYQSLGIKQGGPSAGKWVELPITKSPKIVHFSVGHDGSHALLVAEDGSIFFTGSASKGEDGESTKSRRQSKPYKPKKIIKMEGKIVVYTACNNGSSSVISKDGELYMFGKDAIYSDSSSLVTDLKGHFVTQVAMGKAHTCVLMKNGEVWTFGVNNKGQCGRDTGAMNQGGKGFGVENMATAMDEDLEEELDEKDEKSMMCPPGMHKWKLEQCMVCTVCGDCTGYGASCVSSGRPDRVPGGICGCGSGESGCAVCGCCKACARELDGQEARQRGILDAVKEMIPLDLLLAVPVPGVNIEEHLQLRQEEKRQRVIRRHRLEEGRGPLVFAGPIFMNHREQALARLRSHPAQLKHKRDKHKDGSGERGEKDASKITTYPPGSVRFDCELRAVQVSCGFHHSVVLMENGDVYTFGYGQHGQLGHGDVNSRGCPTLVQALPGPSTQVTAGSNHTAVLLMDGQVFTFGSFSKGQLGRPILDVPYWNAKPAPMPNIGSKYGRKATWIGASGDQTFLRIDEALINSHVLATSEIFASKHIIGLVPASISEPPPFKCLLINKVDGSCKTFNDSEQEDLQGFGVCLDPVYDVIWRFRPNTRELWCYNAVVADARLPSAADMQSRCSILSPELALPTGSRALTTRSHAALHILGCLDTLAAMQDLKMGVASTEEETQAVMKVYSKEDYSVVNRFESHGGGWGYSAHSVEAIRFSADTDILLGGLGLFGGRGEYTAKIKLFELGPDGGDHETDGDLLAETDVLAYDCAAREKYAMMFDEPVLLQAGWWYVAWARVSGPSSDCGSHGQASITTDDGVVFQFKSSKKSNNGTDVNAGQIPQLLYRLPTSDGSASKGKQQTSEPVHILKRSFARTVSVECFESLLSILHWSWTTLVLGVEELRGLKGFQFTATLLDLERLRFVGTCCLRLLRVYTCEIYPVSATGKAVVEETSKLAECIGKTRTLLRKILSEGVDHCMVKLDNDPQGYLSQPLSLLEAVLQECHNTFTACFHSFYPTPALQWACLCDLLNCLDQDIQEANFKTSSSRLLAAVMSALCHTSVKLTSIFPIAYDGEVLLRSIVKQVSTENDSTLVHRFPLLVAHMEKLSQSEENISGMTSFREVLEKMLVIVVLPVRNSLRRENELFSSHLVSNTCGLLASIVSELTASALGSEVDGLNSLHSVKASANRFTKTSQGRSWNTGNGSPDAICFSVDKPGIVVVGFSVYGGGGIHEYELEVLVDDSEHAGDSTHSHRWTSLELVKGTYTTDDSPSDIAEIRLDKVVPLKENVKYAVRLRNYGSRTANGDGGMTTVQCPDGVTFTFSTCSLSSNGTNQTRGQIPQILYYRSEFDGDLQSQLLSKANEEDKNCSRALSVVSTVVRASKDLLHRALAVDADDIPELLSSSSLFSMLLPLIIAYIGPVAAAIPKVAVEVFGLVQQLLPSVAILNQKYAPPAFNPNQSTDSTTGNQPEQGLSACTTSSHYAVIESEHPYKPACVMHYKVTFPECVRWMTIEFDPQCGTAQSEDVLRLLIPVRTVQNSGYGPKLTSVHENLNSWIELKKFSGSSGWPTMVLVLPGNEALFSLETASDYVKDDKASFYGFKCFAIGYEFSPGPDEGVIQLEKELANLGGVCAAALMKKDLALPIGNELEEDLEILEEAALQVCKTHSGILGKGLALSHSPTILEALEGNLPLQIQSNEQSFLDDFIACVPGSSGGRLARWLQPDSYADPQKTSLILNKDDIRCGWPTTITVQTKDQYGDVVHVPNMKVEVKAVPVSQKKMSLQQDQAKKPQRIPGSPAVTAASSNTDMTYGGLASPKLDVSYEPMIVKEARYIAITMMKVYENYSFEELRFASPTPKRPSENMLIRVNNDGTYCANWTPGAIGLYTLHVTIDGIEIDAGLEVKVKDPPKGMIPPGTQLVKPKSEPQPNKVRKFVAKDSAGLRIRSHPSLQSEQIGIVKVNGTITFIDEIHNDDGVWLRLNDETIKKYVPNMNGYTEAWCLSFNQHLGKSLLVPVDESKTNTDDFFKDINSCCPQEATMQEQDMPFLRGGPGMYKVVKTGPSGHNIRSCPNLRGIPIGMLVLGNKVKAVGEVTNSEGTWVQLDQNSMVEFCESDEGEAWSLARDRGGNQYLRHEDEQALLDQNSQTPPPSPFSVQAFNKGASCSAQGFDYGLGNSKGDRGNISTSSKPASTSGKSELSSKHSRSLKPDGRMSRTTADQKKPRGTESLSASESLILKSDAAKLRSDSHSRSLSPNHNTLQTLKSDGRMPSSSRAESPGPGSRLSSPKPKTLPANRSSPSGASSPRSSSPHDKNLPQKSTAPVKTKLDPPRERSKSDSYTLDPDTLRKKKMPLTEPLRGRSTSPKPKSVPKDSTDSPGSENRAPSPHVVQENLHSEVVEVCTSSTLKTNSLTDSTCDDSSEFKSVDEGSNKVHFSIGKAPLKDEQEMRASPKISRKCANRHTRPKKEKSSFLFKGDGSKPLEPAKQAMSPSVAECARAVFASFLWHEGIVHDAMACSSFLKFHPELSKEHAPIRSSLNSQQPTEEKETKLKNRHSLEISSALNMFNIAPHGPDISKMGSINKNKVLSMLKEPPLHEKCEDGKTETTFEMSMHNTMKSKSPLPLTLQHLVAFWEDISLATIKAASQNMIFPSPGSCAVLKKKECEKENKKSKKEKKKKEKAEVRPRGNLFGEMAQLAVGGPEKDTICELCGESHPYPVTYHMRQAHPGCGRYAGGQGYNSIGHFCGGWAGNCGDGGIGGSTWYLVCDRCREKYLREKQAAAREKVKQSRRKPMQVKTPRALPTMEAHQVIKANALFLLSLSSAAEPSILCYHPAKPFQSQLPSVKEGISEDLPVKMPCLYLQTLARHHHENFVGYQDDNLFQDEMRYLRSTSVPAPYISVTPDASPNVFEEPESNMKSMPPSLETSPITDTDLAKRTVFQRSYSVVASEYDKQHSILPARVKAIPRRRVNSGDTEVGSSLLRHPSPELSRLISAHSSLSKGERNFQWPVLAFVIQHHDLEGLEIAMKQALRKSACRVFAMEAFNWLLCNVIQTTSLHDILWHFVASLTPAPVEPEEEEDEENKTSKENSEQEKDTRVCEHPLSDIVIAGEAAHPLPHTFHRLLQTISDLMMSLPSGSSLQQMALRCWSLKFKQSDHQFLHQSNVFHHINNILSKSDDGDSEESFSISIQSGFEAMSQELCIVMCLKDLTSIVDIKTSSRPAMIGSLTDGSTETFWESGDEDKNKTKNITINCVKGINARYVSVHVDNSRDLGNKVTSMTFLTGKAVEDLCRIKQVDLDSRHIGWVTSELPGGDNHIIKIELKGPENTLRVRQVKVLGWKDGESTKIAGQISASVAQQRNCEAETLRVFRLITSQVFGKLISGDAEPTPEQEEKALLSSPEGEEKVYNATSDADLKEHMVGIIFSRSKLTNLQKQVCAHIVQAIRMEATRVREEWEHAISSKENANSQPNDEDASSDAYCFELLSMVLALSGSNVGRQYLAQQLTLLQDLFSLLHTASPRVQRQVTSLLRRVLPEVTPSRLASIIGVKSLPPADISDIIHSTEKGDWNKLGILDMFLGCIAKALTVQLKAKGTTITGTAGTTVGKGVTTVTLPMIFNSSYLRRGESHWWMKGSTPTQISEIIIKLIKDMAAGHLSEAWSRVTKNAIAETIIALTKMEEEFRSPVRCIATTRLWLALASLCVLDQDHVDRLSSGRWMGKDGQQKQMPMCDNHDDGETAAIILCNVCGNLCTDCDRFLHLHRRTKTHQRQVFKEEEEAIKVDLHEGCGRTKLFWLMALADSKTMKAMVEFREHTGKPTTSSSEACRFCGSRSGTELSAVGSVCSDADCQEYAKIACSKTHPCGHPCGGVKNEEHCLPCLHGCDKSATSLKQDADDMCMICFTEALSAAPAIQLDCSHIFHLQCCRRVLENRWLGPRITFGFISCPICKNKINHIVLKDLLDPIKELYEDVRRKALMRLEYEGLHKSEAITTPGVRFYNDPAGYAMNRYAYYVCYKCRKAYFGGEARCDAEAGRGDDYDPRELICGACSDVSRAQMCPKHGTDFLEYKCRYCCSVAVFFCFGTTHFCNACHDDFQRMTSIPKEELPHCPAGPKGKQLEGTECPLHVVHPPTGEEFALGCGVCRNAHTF
UniProt Q9Y6C9: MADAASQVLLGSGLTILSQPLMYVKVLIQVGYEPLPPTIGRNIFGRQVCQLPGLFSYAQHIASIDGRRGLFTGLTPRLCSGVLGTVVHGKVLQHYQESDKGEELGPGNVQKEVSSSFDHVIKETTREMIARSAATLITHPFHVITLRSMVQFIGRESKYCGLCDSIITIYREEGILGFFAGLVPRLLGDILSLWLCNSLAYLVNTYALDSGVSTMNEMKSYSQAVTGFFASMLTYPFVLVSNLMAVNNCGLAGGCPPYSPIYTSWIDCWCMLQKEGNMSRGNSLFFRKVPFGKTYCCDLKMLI

Target	probe-labelled cysteine peptide fold change (10 µM)	probe-labelled cysteine peptide fold change (50 µM)
MSH6_P52701_1337_EVCLASER (UniProt P52701)	0.107	0.139
MTG2_Q9H4K7_175_VVADLSCVGDEYIAALGGAGGK (UniProt Q9H4K7)	-0.145	-0.217
MYD88_Q99836_168_FDAFICYCPSDIQFVQEMIR (UniProt Q99836)	0.412	-1.05
MYH9_P35579_569_DKADFCIIHYAGK (UniProt P35579)	-0.0165	-0.33
MTHFSD_Q2M296_267_DVTLQGEHQHLPEPGCQQTVPLSVGR (UniProt Q2M296)	-0.222	-0.305
MTHFSD_Q2M296_184_ETPVVTIVHDCQVVDIPEELVEEHDITVDYILTPTR (UniProt Q2M296)	0.15	0.695
MTMR14_Q8NCE2_252_YADFTLLSIPYPGCEFFK (UniProt Q8NCE2)	-0.048	0.0221
MTHFD1_P11586_326_SCKPKPIGK (UniProt P11586)	-0.217	-1
MYH11_P35749_95_VEDMAELTCLNEASVLHNLR (UniProt P35749)	0.607	0.764
MYH9_P35579_671_CIIPNHEKK (UniProt P35579)	-0.188	-1.18
MTPN_P58546_45_KPLHYAADCGQLEILEFLLLK (UniProt P58546)	-0.021	0.0447
MYCBP2_O75592_4558_CDAEAGRGDDYDPR (UniProt O75592)	0.032	-0.332
MTMR1_Q13613_438_TSVVVHCSDGWDR (UniProt Q13613)	0.391	0.434
MX1_P20591_52_VRPCIDLIDSLR (UniProt P20591)	-0.124	-0.0865
MSL1_Q68DK7_125_QAGIGGEPAAAGAGCSPR (UniProt Q68DK7)	-0.205	0.114
MTA1_Q13330_281_AISALVPQGGPVLCRDEMEEWSASEANLFEEALEK (UniProt Q13330)	-0.0152	-0.00106
MYCBP2_O75592_3824_AVEDLCR (UniProt O75592)	-0.108	-0.175

Target	probe-labelled cysteine peptide fold change (10 µM)	probe-labelled cysteine peptide fold change (50 µM)
MTPAP_Q9NVV4_412+419_CVIEGNNCTFVR (UniProt Q9NVV4)	-0.117	-0.121
MXI1_P50539_100_LKVLIPLGPDCTR (UniProt P50539)	-0.14	0.213
MYH9_P35579_1379_KMEDSVGCLETAEEVK (UniProt P35579)	0.118	0.13
MSH6_P52701_765_VDTCHTPFGK (UniProt P52701)	-0.0518	-0.0855
MTHFD2_P13995_145_ICNAVSPDK (UniProt P13995)	-0.00299	-0.0517
MSH6_P52701_559_AYGVCFVDTSLGK (UniProt P52701)	0.0183	-0.0198
MVP_Q14764_515_RALCLLLGPDFFTDVITIETADHAR (UniProt Q14764)	-0.0584	0.341
MSH6_P52701_1129_AYCVLVTGPNMGGK (UniProt P52701)	-0.166	-0.274
MTCH2_Q9Y6C9_79_LCSGVLGTVVHGK (UniProt Q9Y6C9)	0.063	-0.00387
MTPN_P58546_83_HHITPLLSAVYEGHVSCVK (UniProt P58546)	0.213	-0.513
MYH9_P35579_917_QELEEICHDLEAR (UniProt P35579)	0.0572	0.414
MTREX_P42285_983_LEIDEETYLSSFKPHLMDVVYTWATGATFAHICK (UniProt P42285)	0.247	0.166
MTERF3_Q96E29_399_LVSIPDEIFCEEIAK (UniProt Q96E29)	-0.0337	-0.21
MYCBP2_O75592_645_IVVYTACNNGSSSVISK (UniProt O75592)	0.0185	0.245
MTHFD1L_Q6UB35_814_AEIDLVCELAK (UniProt Q6UB35)	0.102	0.164
MYCBP2_O75592_505_CLHACGISLFDLEK (UniProt O75592)	0.122	0.236
MTMR1_Q13613_258_INSNYEFCDTYPAIIVVPTSVK (UniProt Q13613)	-0.0841	0.506

2 entries from above, set out differently:
MTPN_P58546_45_KPLHYAADCGQLEILEFLLLK (UniProt P58546)
  probe-labelled cysteine peptide fold change (10 µM) = -0.021; probe-labelled cysteine peptide fold change (50 µM) = 0.0447
MYCBP2_O75592_4558_CDAEAGRGDDYDPR (UniProt O75592)
  probe-labelled cysteine peptide fold change (10 µM) = 0.032; probe-labelled cysteine peptide fold change (50 µM) = -0.332
